Results are given in words; binding and its absence hold for the method and conditions named. In cells and extracts the contact can be indirect. Some entries that bind do so weakly or less than the wild type. Sequences can lack the tags named with a protein.
T1: Prefoldin 2 (Pfd2/Gim4), HA-tagged (S. cerevisiae) (UniProt P40005)
T1 sequence: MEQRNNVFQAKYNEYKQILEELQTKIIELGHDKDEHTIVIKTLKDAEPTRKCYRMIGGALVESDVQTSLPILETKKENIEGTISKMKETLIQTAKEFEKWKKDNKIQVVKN


Target: T1, Prefoldin 2 (Pfd2/Gim4), HA-tagged (S. cerevisiae)
Assay: co-IP; Lysate of Δpfd2 cells expressing PFD2-HA (grown at 25 °C, or shifted to 37 °C for 4 h) on Dynabeads goat anti-mouse IgG coated with anti-HA antibody; lysis buffer 50 mM HEPES-KOH pH 7.5, 100 mM NaCl, 1 mM EDTA, 5% glycerol; overnight at 4 °C; elution in Laemmli buffer, Western blot

Row | binding | Binder
1 | binds | Tom70 (receptor, UniProt P07213 1-617) MKSFITRNKTAILATVAATGTAIGAYYYYNQLQQQQQRGKKNTINKDEKKDTKDSQKETEGAKKSTAPSNPPIYPVSSNGEPDFSNKANFTAEEKDKYALALKDKGNQFFRNKKYDDAIKYYNWALELKEDPVFYSNLSACYVSVGDLKKVVEMSTKALELKPDYSKVLLRRASANEGLGKFADAMFDLSVLSLNGDFNDASIEPMLERNLNKQAMSKLKEKFGDIDTATATPTELSTQPAKERKDKQENLPSVTSMASFFGIFKPELTFANYDESNEADKELMNGLSNLYKRSPESYDKADESFTKAARLFEEQLDKNNEDEKLKEKLAISLEHTGIFKFLKNDPLGAHEDIKKAIELFPRVNSYIYMALIMADRNDSTEYYNYFDKALKLDSNNSSVYYHRGQMNFILQNYDQAGKDFDKAKELDPENIFPYIQLACLAYRENKFDDCETLFSEAKRKFPEAPEVPNFFAEILTDKNDFDKALKQYDLAIELENKLDGIYVGIAPLVGKATLLTRNPTVENFIEATNLLEKASKLDPRSEQAKIGLAQMKLQQEDIDEAITLFEESADLARTMEEKLQAITFAEAAKVQQRIRSDPVLAKKIQETLAKLREQGLM
2 | no binding | Mia40 (protein, UniProt P36046 32-403) MASSPQFGRNSNQEKTAGFIMGILSMAGALYFIAPNRKPLFASRKVESDKTAEEELSSGGEQSPENEDDNNSKSDENGDDNDSKNDETEAGPQLGGDKIGASKVAEDGELVVLAEEDNKSSEDKDTDESKVSTKDDEQSNEDNATANNQKDENISSENSEENTSDKTLDNNAGSSEKKDPEHSDDEKSQQGQSDDKTTTEDNNGEEESSKKTVSDSENSAKQSESSDEEKEELRKQEEKQMGPTEEEVQHEGAYNPDTGEINWDCPCLGGMAHGPCGEEFKSAFSCFVYSEAEPKGIDCVEKFQHMQDCFRKYPEHYAEQLKETSDDEEPQDKVKVNTIESAPNVSSAKENAAKKAEQSDVKKEPLNEESKP

Source: publication PMC10496292
